# Data from patent US11083677B2, “Cosmetic base including amide alcohol, and cosmetic” (Kokyu Alcohol Kogyo Co., Ltd., priority 2016, dated 2021).
# For at least one compound, name, drawing or mass did not settle the structure.
# Assay: Viscosity
# Format: physicochemical
structure (smiles),measurement,value
"CCCCC(CC)CNC(=O)CCCO (stereo not shown) [4HN-EHBA, 4-hydroxy-N-2-ethylhexyl, butyramide]",viscosity,about 770 mPa·s
